From patent US20040147433A1, “Neuroimmunophilins for selective neuronal radioprotection” (priority 1998, published 2004)
For at least one compound, name, drawing or mass did not settle the structure.

Assays:
[1] = system: neurons of the people exposed; assay: Paper example: intravenous dose to staff of a uranium processing plant exposed to radiation; format: in vivo, human; settings: intravenous dose of cyclosporin A and/or FK506 after radiation exposure
[2] = system: mitochondrial permeability transition; settings: free-radical induced mitochondrial permeability transition; cited from earlier work

C=CC[C@@H]1/C=C(\C)C[C@H](C)C[C@H](OC)[C@H]2O[C@@](O)(C(=O)C(=O)N3CCCC[C@H]3C(=O)O[C@H](/C(C)=C/[C@@H]3CC[C@@H](O)[C@H](OC)C3)[C@H](C)[C@@H](O)CC1=O)[C@H](C)C[C@@H]2OC [FK506]
radiation poisoning and chances for survival [1]: reduces radiation poisoning and increases chances for survival | formation of mitochondrial transition / apoptosis [2]: not
